In PubChem BioAssay AID206 (DTP/NCI, 2004):
The list is a part of this screen's results and no random one: it gathers tests that were run many times, whatever their T/C, doses with no T/C, and many T/C values between a quarter and a half above the control. Further doses and runs are listed elsewhere. T/C is the treated group as % of the vehicle group. Schedules are NCI's codes, taken here to give the interval after Q, in days (D) or hours (H), and the number of doses after X. Some T/C values are followed by the survivors on the day toxicity was checked, most often the fifth; without a count, all were alive then. Some doses have a count of surviving animals in place of a T/C: the source holds a T/C of zero for them, seemingly a mark for toxic or unscored doses. Counts of survivors are from the toxicity check (mostly the fifth day) where no day follows; animals may have died later. Some doses were run more than once; the values are given in rising order.

Test system: nude mice, HT29 intrarenal xenograft, tumor weight T/C
Assay: NCI In Vivo Anticancer Drug Screen. Data for tumor model HT29;CX-1 Human Adenocarcinoma (MER+) (intrarenal inoculation) in NU/NU Swiss (nude) mice
Settings: T/C endpoint: mean tumor weight change, higher T/C = larger tumour
Outline: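 Compounds were given to mice carrying transplantable tumors; a vehicle-dosed group served as control. The endpoint measured in each group was compared as a T/C quotient.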

[1] = dose: 800.0 mg/kg/injection, schedule: Q04DX004 (sc), vehicle: suspension in saline
[2] = dose: 400.0 mg/kg/injection, schedule: Q01DX010 (sc), vehicle: Klucel (hydroxypropylcellulose) (HPC)

With `COC1C(O)CC(OC2CC(OC3CC(O[C@@H]4C(=O)c5c(cc6cc(OC7CC(OC8CC(O)C(O)C(C)O8)C(O)C(C)O7)c(C)c(O)c6c5O)C[C@H]4[C@H](OC)C(=O)[C@@H](O)[C@@H](C)O)OC(C)C3O)OC(C)C2O)OC1C` (some centres undefined) the survivor count (dose: 6.0 mg/kg/injection, schedule: Q01DX010 (sc), vehicle: saline) was 0 of 6 on day 20, the survivor count (dose: 12.0 mg/kg/injection, schedule: Q01DX010 (sc), vehicle: saline) was 0 of 6 on day 20 and the survivor count (dose: 24.0 mg/kg/injection, schedule: Q01DX010 (sc), vehicle: saline) was 0 of 6 on day 20.

`O=C(O)C(CSC(c1ccccc1)(c1ccccc1)c1ccccc1)N=Cc1cccs1` (centres undefined) was tested, and the survivor count (dose: 200.0 mg/kg/injection, schedule: Q04DX004 (sc), vehicle: suspension in saline) was 2 of 5 on day 15 and the survivor count [1] was 0 of 6 on day 15 and 2 of 6 on day 15.

`CC(CN1CC(=O)NC(=O)C1)N1CC(=O)NC(=O)C1` (centres undefined) was tested, and the survivor count (dose: 1200.0 mg/kg/injection, schedule: Q04DX004 (sc), vehicle: Klucel (hydroxypropylcellulose) (HPC)) was 0 of 6 on day 15.

`COC(C(=O)C(O)C(C)O)C1Cc2cc3cc(OC4CC(OC(C)=O)C(OC5CC(O)C(OC)C(C)O5)C(C)O4)cc(O)c3c(O)c2C(=O)C1OC1CC(OC2CC(OC3CC(C)(O)C(OC(=O)C(C)C)C(C)O3)C(O)C(C)O2)C(O)C(C)O1` (centres undefined) was tested, and the survivor count (dose: 4.0 mg/kg/injection, schedule: Q01DX010 (sc), vehicle: saline with Tween-80) was 0 of 3 on day 20 and the survivor count (dose: 8.0 mg/kg/injection, schedule: Q04DX004 (sc), vehicle: saline with Tween-80) was 0 of 3 on day 15.

In the case of `C[C@@]12C(=O)OC(=O)[C@]1(C)[C@H]1CC[C@@H]2O1`, the survivor count (dose: 10.0 mg/kg/injection, schedule: Q04DX004 (sc), vehicle: Klucel (hydroxypropylcellulose) (HPC)) is reported as 0 of 6 on day 15.

For `COC(=O)c1ccoc1`, the T/C (dose: 300.0 mg/kg/injection, schedule: Q04DX004 (sc), vehicle: saline, evaluated on day 15) was 129 % of control, the T/C (dose: 600.0 mg/kg/injection, schedule: Q04DX004 (sc), vehicle: saline, evaluated on day 15) was 130 % of control and the survivor count (dose: 1200.0 mg/kg/injection, schedule: Q04DX004 (sc), vehicle: saline) was 0 of 6 on day 15.

`COC1=NCN=C2SC=C(N)N=C12` was tested, and the survivor count (dose: 300.0 mg/kg/injection, schedule: Q04DX004 (sc), vehicle: saline) was 0 of 6 on day 15.

With `CCCCCCCCCCCCCCCC(=O)Nc1ccn(C2OC(CO)C(O)C2O)c(=O)n1` (centres undefined) the survivor count (dose: 450.0 mg/kg/injection, schedule: Q04DX004 (sc), vehicle: water) was 3 of 6 on day 15 and the survivor count (dose: 900.0 mg/kg/injection, schedule: Q04DX004 (sc), vehicle: water) was 1 of 6 on day 15.

For `C=CCNc1ccc(C)cc1`, the survivor count (dose: 200.0 mg/kg/injection, schedule: Q01DX010 (sc), vehicle: Klucel (hydroxypropylcellulose) (HPC)) was 1 of 2 on day 11 and the survivor count [2] was 0 of 3 on day 11 and 1 of 2 on day 11.

In the case of `CN1C(=O)CC2(CCN(CCCC(=O)c3ccc(F)cc3)CC2)C1=O`, the survivor count (dose: 150.0 mg/kg/injection, schedule: Q04DX004 (sc), vehicle: suspension in saline) is reported as 2 of 6 on day 15, the survivor count (dose: 300.0 mg/kg/injection, schedule: Q04DX004 (sc), vehicle: suspension in saline) is reported as 1 of 6 on day 15 and the survivor count (dose: 600.0 mg/kg/injection, schedule: Q04DX004 (sc), vehicle: suspension in saline) is reported as 0 of 6 on day 15.

In the case of `c1ccc2c(NCCCCCCCCNc3c4ccccc4nc4ccccc34)c3ccccc3nc2c1`, the survivor count (dose: 80.0 mg/kg/injection, schedule: Q01DX010 (sc), vehicle: Klucel (hydroxypropylcellulose) (HPC)) is reported as 0 of 3 on day 11.

`CC(C)=CCNc1ncnc2c1ncn2C1OC(CO)C(O)C1O` (centres undefined) was tested, and the T/C (dose: 200.0 mg/kg/injection, schedule: Q04DX004 (sc), vehicle: suspension in saline, evaluated on day 15) was 125 % of control, the survivor count [1] was 0 of 6 on day 15 and the survivor count (dose: 1600.0 mg/kg/injection, schedule: Q04DX004 (sc), vehicle: suspension in saline) was 0 of 6 on day 15.

`O=C(O)CCCc1ccc(N(CCCl)CCCl)cc1` was tested, and the T/C (dose: 2.0 mg/kg/injection, schedule: Q01DX010 (sc), vehicle: saline with Tween-80, evaluated on day 11) was 147 % of control [2 of 2 alive on day 11], the survivor count (dose: 16.0 mg/kg/injection, schedule: Q01DX010 (sc), vehicle: saline with Tween-80) was 2 of 6 on day 11 and the survivor count (dose: 32.0 mg/kg/injection, schedule: Q01DX010 (sc), vehicle: saline with Tween-80) was 0 of 6 on day 11 and 1 of 6 on day 11.

In the case of `O=S(=O)(O)O`, the survivor count (dose: 600.0 mg/kg/injection, schedule: Q04DX004 (sc), vehicle: Klucel (hydroxypropylcellulose) (HPC)) is reported as 0 of 6 on day 15.

`Cc1cc(N(CCOS(C)(=O)=O)CCOS(C)(=O)=O)ccc1C=Nc1ccc(-c2nc(Cc3ccccc3)sc2C)cc1` was tested, and the survivor count [2] was 1 of 3 on day 11.
